Results taken from PMC7819943, “Rice protein-binding microarrays: a tool to detect cis-acting elements near promoter regions in rice”.
Some of the results follow.

Chains of the proteins cited; added tags and fusions are not shown.
UniProt Q0JBA9, entry or part of it: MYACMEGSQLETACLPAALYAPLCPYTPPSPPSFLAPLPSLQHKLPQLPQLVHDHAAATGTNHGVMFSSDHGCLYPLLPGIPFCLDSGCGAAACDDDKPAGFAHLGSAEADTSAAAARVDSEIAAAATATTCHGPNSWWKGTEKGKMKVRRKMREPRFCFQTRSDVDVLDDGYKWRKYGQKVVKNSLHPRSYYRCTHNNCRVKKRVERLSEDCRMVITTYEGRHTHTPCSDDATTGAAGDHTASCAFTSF

These sequences were tested against OsWRKY34 (Oryza sativa, UniProt Q0JBA9 1-250) (assay: protein-binding microarray (RPBM); PBS, 2% BSA, 51.3 ng/ul salmon testes DNA, 50 uM zinc acetate, 200 nM TF, 25 C, 1 h; high values mean tight binding). Conditions: protein: recombinant; tags: N-terminal polyhistidine and DsRed monomer fusion (pET32a); label: CyDye5-dUTP incorporated in the synthesized complementary strand; 3' TTTTT single-stranded linker to array surface; dsDNA, one strand shown.
Outline: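 For the binding signal, per-feature fluorescence intensity was read in arbitrary units on an Axon 4000B scanner. Before scanning, a 2% BSA-blocked custom Agilent array made double-stranded with Cy5-dUTP was washed after 1 h at 25 °C with 200 nM protein and 50 µM zinc acetate. The proteins were Ni–NTA-purified transcription factors with N-terminal polyhistidine and DsRed fusions, expressed in E. coli BL21-CodonPlus.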
In the case of “AAGGGTACACTTTATTTTGTTGGGACAAACTTTGACCAATCGGAGTCACCTAGTGCAG”, the binding signal is reported as 8510 fluorescence intensity (a.u.).
In the case of “CACACCCTTACTGTAGCTATCACTGCACAAAGCCAAAACCCGGAGTCACCTAGTGCAG”, the binding signal is reported as 9130 fluorescence intensity (a.u.).
For “AATACGGGCCGCCTGTGCTCTTCGTACTTCCACCGCTTTCCGGAGTCACCTAGTGCAG”, the binding signal was 9870 fluorescence intensity (a.u.).
With “GCCATGGGGTTGACTCTCTGGGTGTTCTTGGTTTCTTGGCCGGAGTCACCTAGTGCAG” the binding signal was 10500 fluorescence intensity (a.u.).
In the case of “GAACAGGCAGATTACAATGCATTGTTGTTTCATTGTATCGCGGAGTCACCTAGTGCAG”, the binding signal is reported as 9900 fluorescence intensity (a.u.).
In the case of “ATCCGATATTACCTGTAATCTTTTCTATGCATACATCATACGGAGTCACCTAGTGCAG”, the binding signal is reported as 10200 fluorescence intensity (a.u.).
With “CTATCGCCACCTTTTGCCTTGATTTCTCCTTATTGCTAAACGGAGTCACCTAGTGCAG” the binding signal was 14600 fluorescence intensity (a.u.).
For “CTCGATCGATCCCGTTATTCCTTTTTAATCTTTTCTTGTGCGGAGTCACCTAGTGCAG”, the binding signal was 8460 fluorescence intensity (a.u.).
In the case of “GCCGCCCAAAAATGTTTTGGTATACTCCTTGCTGGTGATACGGAGTCACCTAGTGCAG”, the binding signal is reported as 8720 fluorescence intensity (a.u.).
For “ATATTTTTCATTTTTATTTATCTCTCTTCCATATAAATTTCGGAGTCACCTAGTGCAG”, the binding signal was 8890 fluorescence intensity (a.u.).
“GCTATGAGTGCATCTAGATTTTTTGTAACTTCCATCTACTCGGAGTCACCTAGTGCAG” was tested, and the binding signal was 8640 fluorescence intensity (a.u.).
“CTAGGGTTCGGTCGCCACCGCGTTCTCCTCGCCCAATCTCCGGAGTCACCTAGTGCAG” was tested, and the binding signal was 8280 fluorescence intensity (a.u.).
For “CCGTACACACACACGACGCAGCCGTAGACATGCAACCGAACGGAGTCACCTAGTGCAG”, the binding signal was 8350 fluorescence intensity (a.u.).
In the case of “TTGAAGAGTGAACCTTATTATTTAACCATTACTATGTTCTCGGAGTCACCTAGTGCAG”, the binding signal is reported as 8760 fluorescence intensity (a.u.).
“CCAAAAACCGCCTCCGCCACCGCTTACCCATCCACGGATCCGGAGTCACCTAGTGCAG” was tested, and the binding signal was 10900 fluorescence intensity (a.u.).
In the case of “ATGGATGGAAAATATTACTATAGTGGCATGGTTCTAATTTCGGAGTCACCTAGTGCAG”, the binding signal is reported as 8280 fluorescence intensity (a.u.).
With “TCACACTGTTCCATGATAGCTGCCGGCACTAACCCTTCACCGGAGTCACCTAGTGCAG” the binding signal was 10400 fluorescence intensity (a.u.).
“ACACACAAAGATCTCGTCCTCTTTTTTCCTTCTTTTTTGGCGGAGTCACCTAGTGCAG” was tested, and the binding signal was 9500 fluorescence intensity (a.u.).
With “CACGCACCCAAATTTCAAACTCCGCGGCCGCTCCGCCACTCGGAGTCACCTAGTGCAG” the binding signal was 8760 fluorescence intensity (a.u.).
With “CCGCAAAAACCACGCCGCCATCACAGCATTCGTGCATCCCCGGAGTCACCTAGTGCAG” the binding signal was 8920 fluorescence intensity (a.u.).
In the case of “GTGATGTTAGAGCATTTTATTAGCCTTTGTCTTTTTTAACCGGAGTCACCTAGTGCAG”, the binding signal is reported as 9020 fluorescence intensity (a.u.).
For “ATCTCTCACTCGATTTTCTCACTCAAATTTACAGTGTATTCGGAGTCACCTAGTGCAG”, the binding signal was 11100 fluorescence intensity (a.u.).
In the case of “GTGTATCTAGCTCATCTCTAACCGTTCCAATCGTACCCTGCGGAGTCACCTAGTGCAG”, the binding signal is reported as 8030 fluorescence intensity (a.u.).
For “AAGTTGAATTTGGTCTTGCACGTTTTTGGAGTTTTATATTCGGAGTCACCTAGTGCAG”, the binding signal was 8040 fluorescence intensity (a.u.).
For “TTCACCGTCGCGTCGTCCACCATTTGCGTGCCTGATTAATCGGAGTCACCTAGTGCAG”, the binding signal was 11300 fluorescence intensity (a.u.).
For “ATCCGTCTTTTGCATTTGTTGTGTTCGATCTTATAACTGCCGGAGTCACCTAGTGCAG”, the binding signal was 14200 fluorescence intensity (a.u.).
For “CCACCTATCCACGTCAACTCCCTCCGTCCCTCGCCCGCGCCGGAGTCACCTAGTGCAG”, the binding signal was 8660 fluorescence intensity (a.u.).
With “CATATCATAATACATGTGCTTTACTATAATTTTAACCATACGGAGTCACCTAGTGCAG” the binding signal was 8880 fluorescence intensity (a.u.).
In the case of “TCTCGAAATCGATTCTCTGCTCGCATCCTGCCCTCATCCACGGAGTCACCTAGTGCAG”, the binding signal is reported as 11100 fluorescence intensity (a.u.).
With “TTCCATTAGATTGCTCCAATCCCTTTTCTTTTCACCTTTTCGGAGTCACCTAGTGCAG” the binding signal was 9960 fluorescence intensity (a.u.).
“GCATGGGCTTTCTTTTCTCGAAGGGATGGGCTTAGTTGCTCGGAGTCACCTAGTGCAG” was tested, and the binding signal was 8030 fluorescence intensity (a.u.).
In the case of “TCGCGCTTCAACCCTAGTATTTCCGTCTCCCGCGCCACTGCGGAGTCACCTAGTGCAG”, the binding signal is reported as 8260 fluorescence intensity (a.u.).
For “GCCGCCGCCACCACCACCACCACTGCCGCCACCGCCACCTCGGAGTCACCTAGTGCAG”, the binding signal was 9900 fluorescence intensity (a.u.).
In the case of “ACTCGTGCGCCACAGCGCTCTCACACGCGCGCCACACTCACGGAGTCACCTAGTGCAG”, the binding signal is reported as 9090 fluorescence intensity (a.u.).
For “GGCTTTGTCTCAGTAGCTCTGTATTTGTGCTGTAAAACTCCGGAGTCACCTAGTGCAG”, the binding signal was 10400 fluorescence intensity (a.u.).
In the case of “AGCACAGAGCTGGCGCCGACTTCTTCTTTTCCACGGCGCCCGGAGTCACCTAGTGCAG”, the binding signal is reported as 11100 fluorescence intensity (a.u.).
In the case of “GTTTATCAGAATCTGGAGTTTTGGACACAAGGGGTGGTGGCGGAGTCACCTAGTGCAG”, the binding signal is reported as 9000 fluorescence intensity (a.u.).
“TTTTGCCACGCTTCATCCTCTCATCTTTTCGCTTATGCTTCGGAGTCACCTAGTGCAG” was tested, and the binding signal was 9410 fluorescence intensity (a.u.).
For “TGATGGTGGTGGTGGTGGTCGTCGTCGTCGGCTGTTTTGCCGGAGTCACCTAGTGCAG”, the binding signal was 14900 fluorescence intensity (a.u.).
In the case of “CGCTCGCCCGCCACCGCCGCCGCCCTCGCCTGGATCTACCCGGAGTCACCTAGTGCAG”, the binding signal is reported as 12700 fluorescence intensity (a.u.).
In the case of “CTTTATTGTCTGTTACCTGGTTAGTTGGTCATGTAAACTCCGGAGTCACCTAGTGCAG”, the binding signal is reported as 9320 fluorescence intensity (a.u.).
In the case of “TCCACTCCACTCCAGTCCACAGCACTAACCCATCGGTCCCCGGAGTCACCTAGTGCAG”, the binding signal is reported as 8800 fluorescence intensity (a.u.).
